# Laboratory results from PubChem BioAssay AID330 (DTP/NCI, 2004).
# The list shows only some results of the screen, not a fair sample: it gathers tests that were run many times, whatever their T/C, doses with no T/C, and many T/C values between a quarter and a half above the control. Further doses and runs are listed elsewhere. T/C gives the treated animals as a percentage of the vehicle group. Some doses have a count of surviving animals in place of a T/C: the source holds a T/C of zero for them, seemingly a mark for toxic or unscored doses. Some survivor counts are full or nearly so, which does not show that the dose was tolerated: the source hardly ever lists a survival T/C far under the control, and the zero likely stands for such cases as well. Counts of survivors are from the toxicity check (mostly the fifth day) where no day follows; animals may have died later. Schedules are NCI's codes, taken here to give the interval after Q, in days (D) or hours (H), and the number of doses after X. Brackets with × stand for listed records that agree. Some structures stand for samples that the source files as different forms (salt, stereo form or complex); doses refer to the form tested. Some entries hold several experiments; the results are listed from low to high. For survival time, the PubChem record calls one and a half times the control and up active, and a quarter to a half above the control has no call in these data; cut-offs in other NCI protocols can differ. Some T/C values carry the count of animals alive at the toxicity check (mostly the fifth day); without a count, all were alive then.
# System: P388 leukemia ip, CD2F1 mice, survival T/C
# Test: NCI In Vivo Anticancer Drug Screen. Data for tumor model P388 Leukemia (intraperitoneal) in CD2F1 (CDF1) mice
# Conditions: T/C endpoint: median survival time, higher T/C = longer survival
# [1] = dose: 400.0 mg/kg/injection, schedule: Q01DX009 (ip), vehicle: saline
# [2] = dose: 100.0 mg/kg/injection, schedule: Q01DX009 (ip), vehicle: saline
# [3] = dose: 200.0 mg/kg/injection, schedule: Q04DX003 (ip), vehicle: saline with Tween-80
# [4] = dose: 400.0 mg/kg/injection, schedule: Q04DX003 (ip), vehicle: saline with Tween-80
# [5] = dose: 50.0 mg/kg/injection, schedule: Q01DX009 (ip), vehicle: saline
# [6] = dose: 200.0 mg/kg/injection, schedule: Q01DX009 (ip), vehicle: saline
# [7] = dose: 200.0 mg/kg/injection, schedule: Q01DX005 (ip), vehicle: saline
# [8] = dose: 100.0 mg/kg/injection, schedule: Q01DX005 (ip), vehicle: Klucel (hydroxypropylcellulose) (HPC)
# [9] = dose: 200.0 mg/kg/injection, schedule: Q01DX005 (ip), vehicle: Klucel (hydroxypropylcellulose) (HPC)
# [10] = dose: 100.0 mg/kg/injection, schedule: Q01DX009 (ip), vehicle: Klucel (hydroxypropylcellulose) (HPC)
# [11] = dose: 200.0 mg/kg/injection, schedule: Q01DX009 (ip), vehicle: Klucel (hydroxypropylcellulose) (HPC)
# [12] = dose: 256.0 mg/kg/injection, schedule: Q01DX009 (ip), vehicle: saline
# [13] = dose: 100.0 mg/kg/injection, schedule: Q04DX003 (ip), vehicle: saline with Tween-80
# [14] = dose: 200.0 mg/kg/injection, schedule: Q01DX009 (ip), vehicle: saline with Tween-80
# [15] = dose: 100.0 mg/kg/injection, schedule: Q01DX005 (ip), vehicle: saline with Tween-80
# [16] = dose: 25.0 mg/kg/injection, schedule: Q01DX009 (ip), vehicle: saline
smiles,measurement,setting,value
C=CC1(O)CCCCC1,survivor count,[1],2 of 6
C/C=C(/C(=O)O)S(=O)(=O)O.[Ag],survivor count,"dose: 40.0 mg/kg/injection, schedule: Q01DX009 (ip), vehicle: saline with Tween-80",1 of 6
same,survivor count,"dose: 80.0 mg/kg/injection, schedule: Q01DX009 (ip), vehicle: saline with Tween-80",0 of 6
NCC(=O)c1ccc(O)c(O)c1,survivor count,[2],2 of 6
same,survivor count,[3],4 of 6
same,survivor count,[4],3 of 6
CCOCCN1CCN(CCCN2c3ccccc3Sc3ccc(C(F)(F)F)cc32)CC1,T/C,"dose: 25.0 mg/kg/injection, schedule: Q04DX003 (ip), vehicle: saline",140 % of control
Cc1cccc(N)n1,survivor count,[5],0 of 6
same,survivor count,[2],0 of 6
same,survivor count,[6],0 of 6
CCC(C)NC1(N(C)C)N=C(N(C)C)N=C(N(C)C)O1 (configuration not stated),survivor count,[7],0 of 6
[I][Hg][CH]1CCC2CCCC1O2 (configuration not stated),survivor count,"dose: 50.0 mg/kg/injection, schedule: Q01DX009 (ip), vehicle: Klucel (hydroxypropylcellulose) (HPC)",2 of 6
O=C1N=C2OC3(CCCCC3)OC(=O)N2C2(CCCCC2)O1,survivor count,"dose: 400.0 mg/kg/injection, schedule: Q01DX009 (ip), vehicle: distilled water + Tween-80",0 of 6
CC1C2CCC3C4CC=C5CC(N(C)C)CCC5(C)C4CCC32CN1C (configuration not stated),survivor count,[8],3 of 5
same,survivor count,"dose: 100.0 mg/kg/injection, schedule: Q01DX005 (ip), vehicle: saline",0 of 5
same,survivor count,[2],0 of 6
same,survivor count,[9],0 of 5
same,survivor count,[7],0 of 5
CS(=O)(=O)c1ccc(/C(=N/N)c2ccccc2)cc1,survivor count,[10],4 of 6
same,survivor count,[11],0 of 6
O=c1ccn(C2OC(CO)C(O)C2O)c(=O)[nH]1 (configuration not stated),T/C,"dose: 64.0 mg/kg/injection, schedule: Q01DX009 (ip), vehicle: saline","89, 91, 98, 100 % of control"
same,T/C,"dose: 128.0 mg/kg/injection, schedule: Q01DX009 (ip), vehicle: saline","97, 99, 107, 109 % of control"
same,T/C,[12],"89, 97, 101 % of control"
same,survivor count,[12],5 of 6
same,T/C,"dose: 512.0 mg/kg/injection, schedule: Q01DX009 (ip), vehicle: saline","90 (2×), 100, 148 % of control"
BrCCC[P+](c1ccccc1)(c1ccccc1)c1ccccc1,T/C,"dose: 18.75 mg/kg/injection, schedule: Q01DX009 (ip), vehicle: saline with Tween-80",129 % of control
O=C(O)c1ccccc1C(=O)c1ccc(CBr)cc1,survivor count,"dose: 12.5 mg/kg/injection, schedule: Q01DX009 (ip), vehicle: saline with Tween-80",5 of 6
same,survivor count,"dose: 25.0 mg/kg/injection, schedule: Q01DX009 (ip), vehicle: saline with Tween-80",5 of 6
c1cc2n(n1)CCN2,T/C,"dose: 180.0 mg/kg/injection, schedule: Q01DX009 (ip), vehicle: saline",130 % of control
same,survivor count,[6],2 of 6
same,T/C,"dose: 270.0 mg/kg/injection, schedule: Q01DX009 (ip), vehicle: saline",148 % of control
same,survivor count,[1],1 of 6 (2×)
same,T/C,"dose: 450.0 mg/kg/injection, schedule: Q03DX003 (ip), vehicle: saline",126 % of control
same,survivor count,"dose: 600.0 mg/kg/injection, schedule: Q04DX003 (ip), vehicle: saline",5 of 6
CC(C)[C@H](N)C(=O)NCCNC(=O)[C@@H](N)C(C)C,survivor count,"dose: 240.0 mg/kg/injection, schedule: Q01DX005 (ip), vehicle: saline",5 of 6
COc1ccc(/C=C2/OC(=O)C(C(C)=O)=C2O)cc1,survivor count,[11],2 of 6
CCCCCCCN(CCCCCCC)C(=N)c1ccnc2ccccc12,survivor count,"dose: 50.0 mg/kg/injection, schedule: Q01DX005 (ip), vehicle: Klucel (hydroxypropylcellulose) (HPC)",0 of 5
same,survivor count,[8],0 of 5
same,survivor count,[9],0 of 5
CCN(CC)CCCC(C)NC1CCCc2cc3c(cc21)C(=O)c1ccccc1C3=O (configuration not stated),survivor count,[13],0 of 6
same,survivor count,[3],0 of 6
same,survivor count,[4],0 of 6
CC(CO)CCC1OC2CC3C4CC=C5CC(O)CCC5(C)C4CCC3(C)C2C1C (configuration not stated),survivor count,"dose: 18.0 mg/kg/injection, schedule: Q01DX005 (ip), vehicle: Klucel (hydroxypropylcellulose) (HPC)",6 of 6
CCN(C)c1cc(=O)c2ccc3ccccc3c2o1,survivor count,[14],3 of 6
Cc1ccc(NC(=S)NNC(=O)CN2C(=O)c3ccccc3C2=O)cc1,survivor count,"dose: 100.0 mg/kg/injection, schedule: Q01DX001 (ip), vehicle: Klucel (hydroxypropylcellulose) (HPC)",6 of 6
same,survivor count,"dose: 200.0 mg/kg/injection, schedule: Q01DX001 (ip), vehicle: Klucel (hydroxypropylcellulose) (HPC)",5 of 6
O=C1NC(c2cccc3ccccc23)Nc2ccc(Cl)cc21 (configuration not stated),T/C,[10],141 % of control
c1ccc([Te][Te]c2ccccc2)cc1,T/C,"dose: 25.0 mg/kg/injection, schedule: Q01DX005 (ip), vehicle: saline with Tween-80",138 % of control
same,T/C,"dose: 50.0 mg/kg/injection, schedule: Q01DX005 (ip), vehicle: saline with Tween-80",130 % of control
same,T/C,[15],135 % of control
same,survivor count,[15],3 of 5
same,survivor count,"dose: 200.0 mg/kg/injection, schedule: Q01DX005 (ip), vehicle: saline with Tween-80",0 of 5
N#C[C@@H]1C2C=CC(CC2)[C@H]1C#N,survivor count,"dose: 5.0 mg/kg/injection, schedule: Q01DX009 (ip), vehicle: saline with Tween-80",5 of 6
same,survivor count,[13],0 of 6
same,survivor count,[3],0 of 6
same,survivor count,[4],0 of 6
COCCN1CC(=O)N2Cc3ccccc3CN2C(=O)C1,survivor count,[15],5 of 5
CC(=O)Oc1ccc(=O)[nH]c1,T/C,[16],"100 (2×), 101, 112 % of control"
same,T/C,[5],"100, 103, 105, 112 % of control"
same,T/C,[2],"102, 109, 112 % of control (2×)"
same,T/C,[6],"110, 115, 119, 121 % of control"
same,T/C,[1],132 % of control
same,survivor count,[1],"3 of 6, 5 of 6, 6 of 6"
C=CCCn1ccnc1[N+](=O)[O-],survivor count,"dose: 100.0 mg/kg/injection, schedule: Q01DX009 (ip), vehicle: water",6 of 6
same,survivor count,"dose: 200.0 mg/kg/injection, schedule: Q01DX009 (ip), vehicle: water",0 of 6
O=C1CSC(=O)N1c1ccc(Cl)c(Cl)c1,survivor count,[14],5 of 6
NC(=S)N/N=C/c1ncccc1O,T/C,"dose: 12.5 mg/kg/injection, schedule: Q01DX005 (ip), vehicle: saline",134 % of control
same,T/C,"dose: 12.5 mg/kg/injection, schedule: Q01DX009 (ip), vehicle: saline",135 [4 of 6 alive] and 137 % of control
same,T/C,"dose: 25.0 mg/kg/injection, schedule: Q01DX005 (ip), vehicle: saline",144 % of control
same,T/C,"dose: 25.0 mg/kg/injection, schedule: Q01DX005 (ip), vehicle: suspension in saline",148 % of control
same,T/C,[16],128 % of control [4 of 6 alive]
same,T/C,"dose: 50.0 mg/kg/injection, schedule: Q01DX005 (ip), vehicle: suspension in saline",145 % of control
same,survivor count,[2],4 of 6
same,survivor count,"dose: 400.0 mg/kg/injection, schedule: Q01DX005 (ip), vehicle: saline",5 of 6
C=C(C(=O)c1ccccc1C(=O)O)c1cccc(OC)c1,T/C,"dose: 100.0 mg/kg/injection, schedule: Q04DX002 (ip), vehicle: saline with Tween-80",130 % of control [5 of 6 alive]
same,survivor count,"dose: 200.0 mg/kg/injection, schedule: Q04DX002 (ip), vehicle: saline with Tween-80",0 of 6
same,survivor count,"dose: 400.0 mg/kg/injection, schedule: Q04DX002 (ip), vehicle: saline with Tween-80",0 of 6
